± gives the standard deviation. This is one part of the list. Many of these values have a large error.
The sequences below were run on EfPiwi piRISC loaded with L1MC piRNA (26 nt) (assay: pre-steady-state target cleavage rate (min^-1); guide: L1MC piRNA 5'p-UAACUAAAUACUAUGCAAGCUGUAGG; MIWI and MILI are mouse PIWI proteins and EfPiwi is from a freshwater sponge; tags in brackets are library labels; higher = faster piRNA-guided slicing of the target). Settings: auxiliary factor: none (no Gtsf1).
Summary of the method: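 Active affinity-purified piRISC carrying one synthetic guide (1 nM) was mixed with a transcribed, DNA-blocked target RNA library […] in HEPES–potassium acetate buffer at 33 °C for 0–8 or 0–960 min, with or without 500 nM GTSF1 partner protein. Uncleaved targets were then sequenced and normalised to depth and to weakly complementary targets. Three trials were pooled, and k3 was capped at 0.0001 min^-1. A burst-and-steady-state fit was applied to obtain the pre-steady-state cleavage rate.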

| Sequence | pre-steady-state target cleavage rate |
| --- | --- |
| UCCUGCUACAGCUUGCAAAGUAAUUAGUUA | 0.000284 ± 0.019 |
| UCCUGGAACACCUUGCAUAGUAUAUAGUUA | 0.000989 ± 0.013 |
| UCCUGGAACAGCUUGCAAGUAUUUAGUUA | 0.00033 ± 0.022 |
| UCCUGCUACAGCUAGCAUAGUAUUUAGUAA | 0.000619 ± 0.011 |
| UCCUGGAUGUCGUUGCAUAGUAUUUAGUUA [g2:g18:cont:t1A] | 0.00103 ± 0.0074 |
| UCCUGGAUGAGCUAGCAUAGUAUUUAGUUA | 0.00169 ± 0.0064 |
| UCCUGGAUGAGCUUGCAUAGUAAUUAGUUA | 0.00175 ± 0.0068 |
| UCCUGGAUGUCCUUGCAUAGUAUUCAGUUA | 0.000121 ± 0.022 |
| UCCUGGAACAGCUAGGAUAGUAUUUAGUUA | 0.00069 ± 0.0095 |
| UCCUGGAACAGCUUGCUAUGUAUUUAGUUA | 0.00124 ± 0.0064 |
| UCCUGGUACAGCAUUGCAUAGUAUUUAGUUA | 0.00122 ± 0.011 |
| UCCUGGAUCAGCUUGCAUAGUACUUUAGUUA | 0.00468 ± 0.0038 |
| UCCUGGAACAGCUUGGAUAGUAUUUAGAUA | 0.000201 ± 0.045 |
| UCCUGGUACAGCUAGCAAAGUAUUUAGUUA | 0.000822 ± 0.013 |
| UCCUGGAUCUGCUUGCAUACUAUUUAGUUA | 0.00235 ± 0.0052 |
| UCCUGGAUGUCGAACGUAAGUAUUCUAGUUA | 0.000429 ± 0.016 |

Reformatted as labelled records: entries from further up.
UCCUGGAUGUCGUUGCAUAGUAUUUAGUUA [g2:g18:cont:t1A]
  pre-steady-state target cleavage rate = 0.00103 ± 0.0074
UCCUGGAUGAGCUAGCAUAGUAUUUAGUUA
  pre-steady-state target cleavage rate = 0.00169 ± 0.0064

Source: the supplement of paper PMC10338343
